# Laboratory results taken from patent publication US20050054822A1.
# B1: FLAG-HIN-2 (mature human HIN-2 with a carboxy-terminal Flag tag, secreted from 293 cells) (ligand, not shown: small tags and cut ends)
# chain: FLINKVPLPVDKLAPLPLDNILPFMDPLKLLLKTLGISVEHLVEGLRKCVNELGPEASEAVKKLLEALSHLV
# Biological target: apolipoprotein A-I (ApoA-I)
# Experiment: copurification on anti-FLAG antibody affinity column from 293 conditioned medium
binder,measurement,value
B1,binding,binds

# These are yes or no findings as the source states them, for the method shown. In cells and extracts the contact can be indirect. Binding calls can cover weak binding; strength is not graded here. Sequences can lack the tags named with a protein.
